Assay results reported in the supplement of paper PMC10849652.
Some of the results follow.

The chains behind the UniProt entries cited, without tags or fusion partners. Where a name states a change or a piece, a line headed by the entry shows the natural chain unless it says otherwise.
UniProt Q14116, whole entry, looked up: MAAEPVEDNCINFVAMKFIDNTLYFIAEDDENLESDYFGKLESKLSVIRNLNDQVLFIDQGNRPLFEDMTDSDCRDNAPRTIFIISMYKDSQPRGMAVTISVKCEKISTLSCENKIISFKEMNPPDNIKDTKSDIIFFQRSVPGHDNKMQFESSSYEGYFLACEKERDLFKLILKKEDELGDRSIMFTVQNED
UniProt Q9Y547: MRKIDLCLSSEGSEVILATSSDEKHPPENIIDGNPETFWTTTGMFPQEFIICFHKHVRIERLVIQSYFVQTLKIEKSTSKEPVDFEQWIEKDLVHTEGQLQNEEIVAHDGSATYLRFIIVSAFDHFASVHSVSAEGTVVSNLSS
UniProt Q13418: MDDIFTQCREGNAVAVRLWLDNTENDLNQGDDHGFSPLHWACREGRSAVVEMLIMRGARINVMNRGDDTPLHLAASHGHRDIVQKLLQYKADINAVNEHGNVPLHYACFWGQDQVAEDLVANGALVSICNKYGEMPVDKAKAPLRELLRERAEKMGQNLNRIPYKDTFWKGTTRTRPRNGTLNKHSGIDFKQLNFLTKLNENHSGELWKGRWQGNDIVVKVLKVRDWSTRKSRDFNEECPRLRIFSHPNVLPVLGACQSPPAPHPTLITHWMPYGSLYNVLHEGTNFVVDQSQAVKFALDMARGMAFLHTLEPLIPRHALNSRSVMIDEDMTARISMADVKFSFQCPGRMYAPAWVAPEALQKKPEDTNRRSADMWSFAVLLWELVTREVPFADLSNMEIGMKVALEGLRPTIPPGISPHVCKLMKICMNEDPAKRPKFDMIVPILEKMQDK
UniProt Q13478: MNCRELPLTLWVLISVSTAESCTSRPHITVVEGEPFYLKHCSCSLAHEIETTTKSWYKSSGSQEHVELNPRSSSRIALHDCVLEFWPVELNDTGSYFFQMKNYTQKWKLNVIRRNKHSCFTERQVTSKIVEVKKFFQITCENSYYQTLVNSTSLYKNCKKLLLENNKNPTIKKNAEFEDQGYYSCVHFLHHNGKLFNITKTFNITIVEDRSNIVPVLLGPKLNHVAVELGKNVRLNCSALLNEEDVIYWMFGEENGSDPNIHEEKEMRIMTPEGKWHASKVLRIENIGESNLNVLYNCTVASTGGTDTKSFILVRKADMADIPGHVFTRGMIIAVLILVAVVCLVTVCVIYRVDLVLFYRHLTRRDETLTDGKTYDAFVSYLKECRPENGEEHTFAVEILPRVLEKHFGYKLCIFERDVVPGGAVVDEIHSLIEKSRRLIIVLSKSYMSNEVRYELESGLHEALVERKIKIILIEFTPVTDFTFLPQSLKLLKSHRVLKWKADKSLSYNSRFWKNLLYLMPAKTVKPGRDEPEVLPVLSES
UniProt Q8IY31, whole entry, looked up: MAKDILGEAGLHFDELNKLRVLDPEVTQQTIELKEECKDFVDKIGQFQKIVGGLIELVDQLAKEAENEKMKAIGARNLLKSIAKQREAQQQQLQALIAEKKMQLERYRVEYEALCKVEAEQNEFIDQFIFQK
UniProt O15357: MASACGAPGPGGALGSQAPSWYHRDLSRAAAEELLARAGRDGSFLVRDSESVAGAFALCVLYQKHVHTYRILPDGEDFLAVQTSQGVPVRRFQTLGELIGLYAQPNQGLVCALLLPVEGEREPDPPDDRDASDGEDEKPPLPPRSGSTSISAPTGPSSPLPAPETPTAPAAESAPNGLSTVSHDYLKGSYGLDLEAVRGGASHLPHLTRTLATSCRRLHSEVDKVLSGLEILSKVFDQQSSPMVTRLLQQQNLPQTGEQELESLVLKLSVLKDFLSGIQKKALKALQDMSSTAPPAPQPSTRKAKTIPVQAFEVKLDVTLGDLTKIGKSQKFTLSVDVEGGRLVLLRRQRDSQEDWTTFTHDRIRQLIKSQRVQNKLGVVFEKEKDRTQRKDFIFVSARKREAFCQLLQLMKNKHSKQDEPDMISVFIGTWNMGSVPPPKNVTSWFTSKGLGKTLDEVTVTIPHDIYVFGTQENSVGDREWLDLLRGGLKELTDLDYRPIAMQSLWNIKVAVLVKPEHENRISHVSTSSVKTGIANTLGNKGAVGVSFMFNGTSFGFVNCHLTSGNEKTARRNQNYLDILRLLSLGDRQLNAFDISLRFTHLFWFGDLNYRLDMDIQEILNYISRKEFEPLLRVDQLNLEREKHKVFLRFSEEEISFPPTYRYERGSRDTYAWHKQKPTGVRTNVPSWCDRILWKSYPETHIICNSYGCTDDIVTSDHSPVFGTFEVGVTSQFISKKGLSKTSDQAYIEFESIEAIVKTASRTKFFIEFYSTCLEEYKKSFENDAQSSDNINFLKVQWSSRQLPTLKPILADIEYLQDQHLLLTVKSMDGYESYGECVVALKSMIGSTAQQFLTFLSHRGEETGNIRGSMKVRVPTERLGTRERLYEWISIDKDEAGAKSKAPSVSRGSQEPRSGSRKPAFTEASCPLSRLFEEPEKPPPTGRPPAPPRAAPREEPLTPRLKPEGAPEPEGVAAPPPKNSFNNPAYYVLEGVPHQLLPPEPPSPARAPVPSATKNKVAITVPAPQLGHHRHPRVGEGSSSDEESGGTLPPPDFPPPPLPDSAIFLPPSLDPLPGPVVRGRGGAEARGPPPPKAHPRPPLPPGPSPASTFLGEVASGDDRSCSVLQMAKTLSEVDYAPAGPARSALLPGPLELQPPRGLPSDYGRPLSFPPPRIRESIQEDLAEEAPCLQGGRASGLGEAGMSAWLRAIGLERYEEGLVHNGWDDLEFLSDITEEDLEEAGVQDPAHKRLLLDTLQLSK
UniProt Q12906, whole entry, looked up: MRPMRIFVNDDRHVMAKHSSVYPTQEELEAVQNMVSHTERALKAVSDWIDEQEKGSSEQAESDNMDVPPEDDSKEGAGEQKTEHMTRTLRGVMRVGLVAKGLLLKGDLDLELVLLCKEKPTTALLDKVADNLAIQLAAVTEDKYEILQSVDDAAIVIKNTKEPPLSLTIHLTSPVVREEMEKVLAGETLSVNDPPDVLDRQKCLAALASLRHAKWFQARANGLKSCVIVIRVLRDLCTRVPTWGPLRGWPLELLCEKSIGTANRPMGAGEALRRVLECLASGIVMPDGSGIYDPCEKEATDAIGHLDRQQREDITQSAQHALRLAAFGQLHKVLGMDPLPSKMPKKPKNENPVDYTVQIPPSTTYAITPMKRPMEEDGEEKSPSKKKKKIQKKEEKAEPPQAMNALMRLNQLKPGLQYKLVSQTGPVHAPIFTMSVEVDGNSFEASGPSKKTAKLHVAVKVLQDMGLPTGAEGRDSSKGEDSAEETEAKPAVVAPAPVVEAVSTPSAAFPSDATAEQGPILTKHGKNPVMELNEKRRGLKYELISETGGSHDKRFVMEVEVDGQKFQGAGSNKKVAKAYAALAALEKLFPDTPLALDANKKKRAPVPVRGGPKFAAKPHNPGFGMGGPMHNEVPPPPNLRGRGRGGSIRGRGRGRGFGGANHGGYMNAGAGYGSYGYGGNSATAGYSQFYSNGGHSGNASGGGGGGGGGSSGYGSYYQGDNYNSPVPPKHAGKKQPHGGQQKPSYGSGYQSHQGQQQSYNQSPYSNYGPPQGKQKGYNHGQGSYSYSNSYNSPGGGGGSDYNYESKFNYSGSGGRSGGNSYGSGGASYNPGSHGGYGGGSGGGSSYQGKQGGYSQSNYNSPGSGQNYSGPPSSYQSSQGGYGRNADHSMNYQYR
UniProt P61604, whole entry, looked up: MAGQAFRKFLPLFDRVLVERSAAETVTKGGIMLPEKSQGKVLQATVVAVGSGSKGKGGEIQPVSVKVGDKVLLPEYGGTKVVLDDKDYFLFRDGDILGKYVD
UniProt P04792, whole entry, looked up: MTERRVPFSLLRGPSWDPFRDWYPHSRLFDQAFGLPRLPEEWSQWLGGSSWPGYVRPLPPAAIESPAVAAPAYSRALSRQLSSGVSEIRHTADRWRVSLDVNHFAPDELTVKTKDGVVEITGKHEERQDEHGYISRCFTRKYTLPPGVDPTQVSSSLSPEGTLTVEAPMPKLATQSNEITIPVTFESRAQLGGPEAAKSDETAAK
UniProt P48735: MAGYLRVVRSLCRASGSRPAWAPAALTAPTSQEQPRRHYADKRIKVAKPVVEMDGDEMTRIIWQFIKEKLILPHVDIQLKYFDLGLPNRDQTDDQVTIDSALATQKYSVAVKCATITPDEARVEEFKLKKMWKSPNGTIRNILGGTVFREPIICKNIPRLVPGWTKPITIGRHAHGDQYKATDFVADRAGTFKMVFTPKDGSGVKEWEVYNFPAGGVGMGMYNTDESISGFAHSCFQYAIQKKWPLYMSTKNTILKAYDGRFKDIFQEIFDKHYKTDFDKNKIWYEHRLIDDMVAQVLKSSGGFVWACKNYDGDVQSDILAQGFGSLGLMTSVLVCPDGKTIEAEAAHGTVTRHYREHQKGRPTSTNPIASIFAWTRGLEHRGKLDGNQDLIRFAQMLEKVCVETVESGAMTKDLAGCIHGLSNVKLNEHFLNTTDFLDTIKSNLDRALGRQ
UniProt O14920: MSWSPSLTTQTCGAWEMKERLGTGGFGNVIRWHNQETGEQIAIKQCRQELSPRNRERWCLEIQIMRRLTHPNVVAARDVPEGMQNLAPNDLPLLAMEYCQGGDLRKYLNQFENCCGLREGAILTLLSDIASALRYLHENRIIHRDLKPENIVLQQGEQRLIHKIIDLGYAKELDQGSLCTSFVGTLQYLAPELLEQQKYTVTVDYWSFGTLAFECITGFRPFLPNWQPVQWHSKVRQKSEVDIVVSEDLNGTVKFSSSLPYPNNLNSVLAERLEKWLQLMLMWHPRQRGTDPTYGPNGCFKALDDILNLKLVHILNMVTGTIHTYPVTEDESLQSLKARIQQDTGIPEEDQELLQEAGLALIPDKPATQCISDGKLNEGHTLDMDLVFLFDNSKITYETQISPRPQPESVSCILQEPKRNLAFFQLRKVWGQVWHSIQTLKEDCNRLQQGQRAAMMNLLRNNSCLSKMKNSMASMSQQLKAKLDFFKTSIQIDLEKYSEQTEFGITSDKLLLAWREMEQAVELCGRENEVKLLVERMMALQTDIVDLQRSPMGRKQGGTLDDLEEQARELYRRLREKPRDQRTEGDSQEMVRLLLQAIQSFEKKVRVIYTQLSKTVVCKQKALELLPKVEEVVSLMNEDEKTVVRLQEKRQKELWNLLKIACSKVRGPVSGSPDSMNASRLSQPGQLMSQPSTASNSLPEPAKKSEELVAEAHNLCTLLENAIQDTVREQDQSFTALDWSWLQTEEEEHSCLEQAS
UniProt Q9Y4L1: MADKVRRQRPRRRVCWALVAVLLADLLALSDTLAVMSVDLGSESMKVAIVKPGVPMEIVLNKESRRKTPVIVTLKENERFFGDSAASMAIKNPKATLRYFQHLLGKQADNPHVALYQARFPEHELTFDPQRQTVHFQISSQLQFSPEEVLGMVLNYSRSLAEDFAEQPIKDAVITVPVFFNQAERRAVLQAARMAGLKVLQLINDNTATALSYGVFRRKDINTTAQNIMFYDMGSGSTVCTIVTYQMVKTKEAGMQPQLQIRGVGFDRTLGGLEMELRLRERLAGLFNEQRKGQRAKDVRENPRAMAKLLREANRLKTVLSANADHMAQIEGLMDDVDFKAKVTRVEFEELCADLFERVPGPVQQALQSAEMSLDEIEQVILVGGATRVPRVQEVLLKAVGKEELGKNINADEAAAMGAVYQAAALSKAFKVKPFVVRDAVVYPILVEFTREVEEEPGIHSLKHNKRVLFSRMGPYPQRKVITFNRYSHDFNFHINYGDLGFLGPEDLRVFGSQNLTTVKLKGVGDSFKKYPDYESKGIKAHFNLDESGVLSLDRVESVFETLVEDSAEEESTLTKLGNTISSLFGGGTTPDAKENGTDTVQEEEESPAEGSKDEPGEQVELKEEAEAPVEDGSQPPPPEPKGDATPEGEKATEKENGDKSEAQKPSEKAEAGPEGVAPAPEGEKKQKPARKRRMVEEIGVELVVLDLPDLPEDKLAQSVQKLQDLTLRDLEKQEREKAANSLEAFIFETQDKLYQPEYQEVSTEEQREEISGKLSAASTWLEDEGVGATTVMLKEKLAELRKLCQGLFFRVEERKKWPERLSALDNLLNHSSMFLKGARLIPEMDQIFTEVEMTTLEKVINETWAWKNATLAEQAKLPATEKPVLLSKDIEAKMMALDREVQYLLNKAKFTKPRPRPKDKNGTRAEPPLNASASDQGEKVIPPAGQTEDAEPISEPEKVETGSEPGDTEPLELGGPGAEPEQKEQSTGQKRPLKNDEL
UniProt Q01628, whole entry, looked up: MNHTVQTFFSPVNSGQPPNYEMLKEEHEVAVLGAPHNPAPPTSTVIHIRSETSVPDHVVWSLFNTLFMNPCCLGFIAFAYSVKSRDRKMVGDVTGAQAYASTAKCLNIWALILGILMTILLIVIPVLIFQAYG

What was measured:
Assay in all cases: log2 fold change, soluble protein after heating vs DMSO (PISA); higher = thermal stabilisation; K562 lysate, 10 uM; active = over 0.2 and 3.5 SD of the protein, either way, in both replicates (recomputed)
erlotinib = compound: C#Cc1cccc(Nc2ncnc3cc(OCCOC)c(OCCOC)cc23)c1 [erlotinib]
In short: (§1)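 To prepare the extract, K562 pellets were dounce-homogenised in PBS pH 7.4 with 1 mM MgCl2, giving crude material at 1 mg/mL protein. This was treated with 10 μM compound for 30 min, then heated in aliquots for 3 min over 48°C-58°C before pooling and addition of NP-40 to 0.5% at 4°C. Centrifugation at 21,000xg for 90 min left soluble protein in the supernatant, which TMTpro 16plex LC-MS/MS quantified with equalised channel sums. Results are log-two fold changes in thermal stability compared with solvent controls, from duplicates.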

[1] = compound: C/C(=N\NC(=O)C1=CC(=CC=C1)S(=O)(=O)N2CCOCC2)/C3=C(C=CC(=C3)Cl)O
In short: as §1

[2] = compound: C1=CC(=CC=C1C2=NC3=C(N2)C=C(C=C3)C(=O)N)OC4=CC=C(C=C4)Cl
In short: as §1

[3] = compound: C1=CC2=C(C=CC(=C2)/C=C\3/C(=O)NC(=NCC4=CC=CS4)S3)N=C1
In short: as §1

[4] = compound: C1=CC2=NC=CN=C2C=C1/C=C/3\C(=O)NC(=O)S3
In short: as §1

[5] = compound: C1=CC=C(C=C1)C2=NC(=C(N2)C3=CC=NC=C3)C4=CC(=C(C=C4)Cl)O
In short: as §1

[6] = compound: C1=CC=C2C(=C1)C3=NNC4=CC=CC(=C43)C2=O
In short: as §1

[7] = compound: C1CCN(C1)C(=O)NC2=CC=CC(=C2)NC3=NC=C(C(=N3)NCCC4=CN=CN4)Br
In short: as §1

[8] = compound: C1CN(CCC1(CC2=CC=C(C=C2)Cl)N)C3=NC=NC4=C3C=CN4
In short: as §1

IRAK-1-4 Inhibitor I = compound: C1COCCN1CCN2C3=CC=CC=C3N=C2NC(=O)C4=CC(=CC=C4)[N+](=O)[O-] [IRAK-1-4 Inhibitor I]
In short: as §1

ibrutinib = compound: C=CC(=O)N1CCC[C@@H](n2nc(-c3ccc(Oc4ccccc4)cc3)c3c(N)ncnc32)C1 [ibrutinib]
In short: as §1

[9] = compound: CC(=O)c1cnc2ccc(-c3cc(Cl)c(O)c(Cl)c3)nc2c1N[C@H]1CC[C@H](CN(C)C)CC1
In short: as §1

ralimetinib = compound: CC(C)(C)Cn1c(N)nc2ccc(-c3[nH]c(C(C)(C)C)nc3-c3ccc(F)cc3)nc21 [ralimetinib]
In short: as §1

[10] = compound: CC(C)(O)CC(=O)NCCn1ccc2ncnc(Nc3ccc(Oc4cccc(C(F)(F)F)c4)c(Cl)c3)c21
In short: as §1

[11] = compound: CC(C)C1=C2N=C(C=C(N2N=C1)NCC3=CC=CC=C3)NCCCCCCN
In short: as §1

[12] = compound: CC1=C(C(CC(=O)N1)C2=CC=C(C=C2)C(F)(F)F)C(=O)NC3=C(C=C4C(=C3)C=NN4)F
In short: as §1

[13] = compound: CC1=C(C2=C(C=C1)C(=O)C3=CC=CC=C3N2CCCN)C
In short: as §1

[14] = compound: CC1=C(C=C(C=C1)NC(=O)C2=CC(=CC=C2)C(C)(C)C#N)NC3=CC4=C(C=C3)N=CN(C4=O)C
In short: as §1

[15] = compound: CC1=C(C=C(C=C1)NC(=O)C2=CC(=CC=C2)N(C)C)NC(=O)C3=CC=C(C=C3)O
In short: as §1

[16] = compound: CC1=CC=C(C=C1)SC2=C3C=C(SC3=CN=C2)C(=O)N
In short: as §1

Measured: log2 fold change

IL18 (UniProt Q14116)
inactive: erlotinib -0.019 | [1] -0.069 | [2] 0.01 | [3] -0.065 | [4] -0.062 | [5] -0.028 | [6] -0.02 | [7] 0.051 | [8] 0.007 | IRAK-1-4 Inhibitor I -0.012 | ibrutinib 0.029 | [9] -0.012 | ralimetinib 0.027 | [10] -0.055 | [11] 0.025 | [12] -0.01 | [13] 0.031 | [14] -0.048 | [15] -0.027 | [16] -0.036

HSPB11 (UniProt Q9Y547)
inactive: erlotinib -0.028 | [1] 0.032 | [2] 0.007 | [3] -0.033 | [4] -0.022 | [5] -0.002 | [6] -0.055 | [7] 0.008 | [8] 0.086 | IRAK-1-4 Inhibitor I 0.027 | ibrutinib 0.036 | [9] 0.019 | ralimetinib 0.031 | [10] -0.048 | [11] -0.015 | [12] -0.024 | [13] -0.066 | [14] 0.016 | [15] 0.002 | [16] -0.002

ILK (UniProt Q13418)
inactive: erlotinib 0.112 | [1] 0.025 | [2] 0.019 | [3] 0.012 | [4] 0.002 | [5] -0.018 | [6] -0.04 | [7] 0.029 | [8] -0.035 | IRAK-1-4 Inhibitor I 0.045 | ibrutinib 0.017 | [9] 0.006 | ralimetinib 0 | [10] -0.022 | [11] -0.007 | [12] 0.013 | [13] -0.02 | [14] 0.049 | [15] -0.001 | [16] 0.057

IL18R1 (UniProt Q13478)
inactive: erlotinib -0.029 | [1] -0.493 | [2] -0.136 | [3] 0.147 | [4] 0.041 | [5] 0.152 | [6] 0.079 | [7] -0.155 | [8] 0.058 | IRAK-1-4 Inhibitor I -0.043 | ibrutinib -0.177 | [9] 0.117 | ralimetinib -0.261 | [10] -0.463 | [11] 0.053 | [12] -0.066 | [13] -0.031 | [14] 0.061 | [15] 0.15 | [16] 0.097

IFT20 isoform 2 (UniProt Q8IY31)
inactive: erlotinib 0.057 | [1] -0.067 | [2] 0.038 | [3] 0.005 | [4] 0.035 | [5] -0.048 | [6] -0.027 | [7] 0.069 | [8] 0.025 | IRAK-1-4 Inhibitor I 0.023 | ibrutinib -0.033 | [9] -0.055 | ralimetinib -0.001 | [10] -0.183 | [11] 0.015 | [12] -0.115 | [13] -0.08 | [14] 0.089 | [15] 0.052 | [16] -0.032

INPPL1 (UniProt O15357)
inactive: erlotinib -0.01 | [1] -0.034 | [2] -0.018 | [3] -0.052 | [4] -0.006 | [5] -0.02 | [6] -0.051 | [7] -0.021 | [8] 0.003 | IRAK-1-4 Inhibitor I -0.034 | ibrutinib 0.012 | [9] 0.02 | ralimetinib 0.049 | [10] -0.013 | [11] 0.004 | [12] 0.011 | [13] -0.005 | [14] -0.001 | [15] 0.034 | [16] 0.014

HSPG2 (UniProt P98160)
inactive: erlotinib -0.024 | [1] 0.026 | [2] 0.008 | [3] -0.015 | [4] -0.005 | [5] 0.003 | [6] -0.037 | [7] -0.008 | [8] 0.03 | IRAK-1-4 Inhibitor I 0.001 | ibrutinib -0.07 | [9] 0.035 | ralimetinib -0.035 | [10] -0.101 | [11] 0.006 | [12] 0.068 | [13] 0.008 | [14] 0.014 | [15] 0.043 | [16] -0.003

HUWE1 (UniProt Q7Z6Z7)
inactive: erlotinib -0.005 | [1] -0.012 | [2] 0.007 | [3] -0.007 | [4] 0.002 | [5] -0.009 | [6] -0.003 | [7] 0.001 | [8] 0.008 | IRAK-1-4 Inhibitor I 0.005 | ibrutinib 0.012 | [9] -0.001 | ralimetinib 0.024 | [10] -0.011 | [11] 0 | [12] 0 | [13] -0.014 | [14] 0 | [15] 0 | [16] -0.005

ILF3 isoform 7 (UniProt Q12906)
inactive: erlotinib -0.011 | [1] 0.031 | [2] 0.02 | [3] -0.013 | [4] -0.013 | [5] 0.027 | [6] 0.008 | [7] 0.001 | [8] -0.017 | IRAK-1-4 Inhibitor I 0.019 | ibrutinib -0.004 | [9] -0.037 | ralimetinib -0.002 | [10] -0.017 | [11] -0.002 | [12] -0.018 | [13] -0.066 | [14] -0.006 | [15] 0.013 | [16] 0.02

HSPE1 (UniProt P61604)
inactive: erlotinib -0.046 | [1] -0.02 | [2] -0.028 | [3] -0.024 | [4] -0.031 | [5] -0.022 | [6] 0.042 | [7] 0.026 | [8] 0.015 | IRAK-1-4 Inhibitor I -0.009 | ibrutinib -0.012 | [9] 0.035 | ralimetinib -0.029 | [10] -0.009 | [11] 0.024 | [12] -0.107 | [13] 0.029 | [14] 0.015 | [15] -0.018 | [16] 0.017

2 consecutive entries from above, for reference:
ILF3 isoform 7 (UniProt Q12906)
inactive: erlotinib -0.011 | [1] 0.031 | [2] 0.02 | [3] -0.013 | [4] -0.013 | [5] 0.027 | [6] 0.008 | [7] 0.001 | [8] -0.017 | IRAK-1-4 Inhibitor I 0.019 | ibrutinib -0.004 | [9] -0.037 | ralimetinib -0.002 | [10] -0.017 | [11] -0.002 | [12] -0.018 | [13] -0.066 | [14] -0.006 | [15] 0.013 | [16] 0.02

HSPE1 (UniProt P61604)
inactive: erlotinib -0.046 | [1] -0.02 | [2] -0.028 | [3] -0.024 | [4] -0.031 | [5] -0.022 | [6] 0.042 | [7] 0.026 | [8] 0.015 | IRAK-1-4 Inhibitor I -0.009 | ibrutinib -0.012 | [9] 0.035 | ralimetinib -0.029 | [10] -0.009 | [11] 0.024 | [12] -0.107 | [13] 0.029 | [14] 0.015 | [15] -0.018 | [16] 0.017

Later entries:

HSPB1 (UniProt P04792)
inactive: erlotinib 0.004 | [1] -0.03 | [2] 0.03 | [3] -0.012 | [4] 0.001 | [5] -0.009 | [6] 0.034 | [7] -0.013 | [8] -0.025 | IRAK-1-4 Inhibitor I 0.006 | ibrutinib -0.015 | [9] -0.008 | ralimetinib 0.022 | [10] -0.016 | [11] 0.012 | [12] 0 | [13] 0.016 | [14] -0.117 | [15] 0.006 | [16] 0.003

IDH2 (UniProt P48735)
inactive: erlotinib 0.016 | [1] 0.013 | [2] -0.032 | [3] 0.017 | [4] 0.029 | [5] 0.062 | [6] -0.08 | [7] -0.017 | [8] 0.027 | IRAK-1-4 Inhibitor I 0.031 | ibrutinib -0.012 | [9] -0.003 | ralimetinib 0.004 | [10] -0.002 | [11] 0.027 | [12] -0.033 | [13] -0.122 | [14] -0.011 | [15] 0.042 | [16] 0.04

IKBKB (UniProt O14920)
inactive: erlotinib 0.03 | [1] 0.016 | [2] 0.005 | [3] 0.014 | [4] -0.04 | [5] -0.043 | [6] -0.023 | [7] -0.045 | [8] -0.029 | IRAK-1-4 Inhibitor I 0.002 | ibrutinib -0.003 | [9] 0.031 | ralimetinib 0.051 | [10] -0.053 | [11] -0.016 | [12] -0.001 | [13] -0.079 | [14] 0.007 | [15] 0.041 | [16] 0.006

HYOU1 (UniProt Q9Y4L1)
inactive: erlotinib -0.002 | [1] -0.006 | [2] 0.007 | [3] -0.011 | [4] -0.018 | [5] -0.002 | [6] -0.015 | [7] 0.01 | [8] 0.009 | IRAK-1-4 Inhibitor I 0.002 | ibrutinib 0.003 | [9] 0.007 | ralimetinib -0.006 | [10] 0 | [11] -0.001 | [12] -0.006 | [13] 0.002 | [14] -0.009 | [15] -0.004 | [16] -0.003

IFITM3 (UniProt Q01628)
inactive: erlotinib -0.136 | [1] -0.11 | [2] 0.062 | [3] 0.004 | [4] -0.094 | [5] -0.122 | [6] 0.084 | [7] -0.095 | [8] -0.069 | IRAK-1-4 Inhibitor I -0.026 | ibrutinib -0.07 | [9] -0.042 | ralimetinib 0.179 | [10] 0.078 | [11] 0.003 | [12] -0.173 | [13] -0.117 | [14] -0.133 | [15] -0.026 | [16] 0.129

IDH3A (UniProt P50213)
inactive: erlotinib -0.003 | [1] -0.012 | [2] 0.018 | [3] -0.013 | [4] 0.011 | [5] -0.006 | [6] 0.046 | [7] -0.011 | [8] -0.028 | IRAK-1-4 Inhibitor I 0.007 | ibrutinib 0 | [9] -0.004 | ralimetinib -0.003 | [10] 0 | [11] 0 | [12] -0.017 | [13] -0.013 | [14] 0.009 | [15] 0.005 | [16] -0.006
